US8518876B2 (Pharmaln Corporation, priority 2007, dated 2013)
Bridges are numbered along the chain shown (N, C = ends). [ ]: non-standard residue; d: D form. The star is where a group is joined. ξ: configuration not given here. Lauroyl = CCCCCCCCCCCC(=O)*; Octanoyl = CCCCCCCC(=O)*; ξLac = CC(O)C(=O)O

Assay: peptide made by a vendor
Settings: whole synthesis, 215 nm

Substance	final HPLC purity
Lauroyl-GGGCYFQNCPKG-NH2 (disulfide 4-9; SMILES CCCCCCCCCCCC(=O)NCC(=O)NCC(=O)NCC(=O)N[C@H]1CSSC[C@@H](C(=O)N2CCC[C@H]2C(=O)N[C@@H](CCCCN)C(=O)NCC(N)=O)NC(=O)[C@H](CC(N)=O)NC(=O)[C@H](CCC(N)=O)NC(=O)[C@H](Cc2ccccc2)NC(=O)[C@H](Cc2ccc(O)cc2)NC1=O)	greater than 90%
H-HHHGGGCYFQNCPRG-NH2 (disulfide 7-12; SMILES N=C(N)NCCC[C@H](NC(=O)[C@@H]1CCCN1C(=O)[C@@H]1CSSC[C@H](NC(=O)CNC(=O)CNC(=O)CNC(=O)[C@H](Cc2c[nH]cn2)NC(=O)[C@H](Cc2c[nH]cn2)NC(=O)[C@@H](N)Cc2c[nH]cn2)C(=O)N[C@@H](Cc2ccc(O)cc2)C(=O)N[C@@H](Cc2ccccc2)C(=O)N[C@@H](CCC(N)=O)C(=O)N[C@@H](CC(N)=O)C(=O)N1)C(=O)NCC(N)=O)	greater than 95%

Same assay, conditions: whole synthesis, 220 nm

Substance	final HPLC purity
H-HHHGGGCYFQNCPKG-NH2 (disulfide 7-12; SMILES NCCCC[C@H](NC(=O)[C@@H]1CCCN1C(=O)[C@@H]1CSSC[C@H](NC(=O)CNC(=O)CNC(=O)CNC(=O)[C@H](Cc2c[nH]cn2)NC(=O)[C@H](Cc2c[nH]cn2)NC(=O)[C@@H](N)Cc2c[nH]cn2)C(=O)N[C@@H](Cc2ccc(O)cc2)C(=O)N[C@@H](Cc2ccccc2)C(=O)N[C@@H](CCC(N)=O)C(=O)N[C@@H](CC(N)=O)C(=O)N1)C(=O)NCC(N)=O)	greater than 95%
Octanoyl-GGGCYFQNCPKG-NH2 (disulfide 4-9; SMILES CCCCCCCC(=O)NCC(=O)NCC(=O)NCC(=O)N[C@H]1CSSC[C@@H](C(=O)N2CCC[C@H]2C(=O)N[C@@H](CCCCN)C(=O)NCC(N)=O)NC(=O)[C@H](CC(N)=O)NC(=O)[C@H](CCC(N)=O)NC(=O)[C@H](Cc2ccccc2)NC(=O)[C@H](Cc2ccc(O)cc2)NC1=O)	greater than 90%
H-HHHHHHGGGCYFQNCPKG-NH2 (disulfide 10-15; SMILES NCCCC[C@H](NC(=O)[C@@H]1CCCN1C(=O)[C@@H]1CSSC[C@H](NC(=O)CNC(=O)CNC(=O)CNC(=O)[C@H](Cc2c[nH]cn2)NC(=O)[C@H](Cc2c[nH]cn2)NC(=O)[C@H](Cc2c[nH]cn2)NC(=O)[C@H](Cc2c[nH]cn2)NC(=O)[C@H](Cc2c[nH]cn2)NC(=O)[C@@H](N)Cc2c[nH]cn2)C(=O)N[C@@H](Cc2ccc(O)cc2)C(=O)N[C@@H](Cc2ccccc2)C(=O)N[C@@H](CCC(N)=O)C(=O)N[C@@H](CC(N)=O)C(=O)N1)C(=O)NCC(N)=O)	greater than 95%
Octanoyl-[ξLac]GGGCYFQNCPKG-NH2 (disulfide 5-10; SMILES CCCCCCCC(=O)OC(C)C(=O)NCC(=O)NCC(=O)NCC(=O)N[C@H]1CSSC[C@@H](C(=O)N2CCC[C@H]2C(=O)N[C@@H](CCCCN)C(=O)NCC(N)=O)NC(=O)[C@H](CC(N)=O)NC(=O)[C@H](CCC(N)=O)NC(=O)[C@H](Cc2ccccc2)NC(=O)[C@H](Cc2ccc(O)cc2)NC1=O)	greater than 95%
Lauroyl-[ξLac]GGGCYFQNCPKG-NH2 (disulfide 5-10; SMILES CCCCCCCCCCCC(=O)OC(C)C(=O)NCC(=O)NCC(=O)NCC(=O)N[C@H]1CSSC[C@@H](C(=O)N2CCC[C@H]2C(=O)N[C@@H](CCCCN)C(=O)NCC(N)=O)NC(=O)[C@H](CC(N)=O)NC(=O)[C@H](CCC(N)=O)NC(=O)[C@H](Cc2ccccc2)NC(=O)[C@H](Cc2ccc(O)cc2)NC1=O)	greater than 90%
H-HHHHHHGGGCYFQNCPRG-NH2 (disulfide 10-15; SMILES N=C(N)NCCC[C@H](NC(=O)[C@@H]1CCCN1C(=O)[C@@H]1CSSC[C@H](NC(=O)CNC(=O)CNC(=O)CNC(=O)[C@H](Cc2c[nH]cn2)NC(=O)[C@H](Cc2c[nH]cn2)NC(=O)[C@H](Cc2c[nH]cn2)NC(=O)[C@H](Cc2c[nH]cn2)NC(=O)[C@H](Cc2c[nH]cn2)NC(=O)[C@@H](N)Cc2c[nH]cn2)C(=O)N[C@@H](Cc2ccc(O)cc2)C(=O)N[C@@H](Cc2ccccc2)C(=O)N[C@@H](CCC(N)=O)C(=O)N[C@@H](CC(N)=O)C(=O)N1)C(=O)NCC(N)=O)	greater than 95%
